The nature of this experiment: qHTS Assay for Lipid Storage Modulators in Drosophila S3 Cells.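 For cell number change: cells counted by Cell Tracker Red CMTPX staining in the red channel.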 Conditions: BODIPY lipid droplet fluorescence, 18-24 h; for cell number change: measured here: cell count max response, cells fed with added oleic acid. The essentials: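 Drosophila S3 cells got compounds at several concentrations plus oleic acid (400 uM solution). Laser-scanning cytometry with 488 nm excitation read lipid droplets at 500-530 nm and cells at 575-640 nm. Percent activity was relative to 20 uM Triacsin C.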
On the technique in general: qHTS replaces the single test concentration by a dilution series.

Setting [1] is: measured here: lipid fluorescence (Fed channel) AC50, cells fed with added oleic acid.
The mark [2] stands for this setting: measured here: cell number channel AC50, cells fed with added oleic acid.

Each structure is given as a SMILES string. The list shows a part of the results. These are further read-outs of the screen, such as a control signal, another cell line or another target. No call is given for them. Most of these compounds were active or inconclusive in the main read-out, so they are no random draw. Words in brackets tell the shape of the fitted curve; partial curves, single points and poor fits give uncertain potencies.

For `CC(C)(C)NS(=O)(=O)c1ccc(NC(=S)NC(=O)C2CCC2)cc1`, the cell number change is -15.6%. Broadly, the AC50 is the midpoint of the concentration-response curve, whichever way the signal moves. High values mean activity only at high concentration, low ones activity at low concentration. `CN1CCN(CC(=O)Nc2cccc([N+](=O)[O-])c2)CC1`: the cell number change was -20.4%. Also, under setting [1], the AC50 is 3.66 µM [falling, full curve]. Regarding `Cc1cc(C)c(NC(=O)Cn2nnc(C(=O)NCc3ccc4c(c3)OCO4)c2N)c(C)c1`, the cell number change was found to be 38.2%. Further, the AC50 under setting [2] was 1.16 µM [rising, partial curve, poor fit]. `O=C1c2ccccc2C(=O)N1OCc1ccc(Cl)cc1`: the cell number change was determined as 1.32%.

`CC1CCN(CC(=O)NCc2ccco2)CC1`: the cell number change was 21.8%. For the compound `COC(=O)c1ccccc1NC(=O)Cc1nc(-c2ccccc2)sc1-c1ccc(C)cc1`, the cell number change was -11.8%. Further, the AC50 under setting [1] was 16.4 µM [falling, single point]. Turning to `O=C(NCC1CCCO1)NC1CCCCC1` (stereo not given), the cell number change came to 36.1%. With `CC1=NN(c2ccccc2)C(=O)/C1=C\c1sccc1C`, the cell number change is -4.91%. Further, the AC50 under setting [1] was 6.51 µM [falling, single point].

As to `Cc1ccc(OCCn2cc(/C=C/C(=O)O)c3ccccc32)cc1`, under setting [1], the AC50 was 6.51 µM [falling, partial curve, poor fit]. In the case of `CCC(=O)c1ccccc1OCCSc1nc(C)cc(=O)[nH]1`, the cell number change came out at 4.3%. For the same compound, under setting [2], the AC50 is 0.116 µM [falling, full curve, poor fit]. With `CC(C)C(NC(=O)C(C)N1C(=O)c2ccccc2C1=O)c1ccccc1` (stereo not given), the cell number change is -18.3%. Besides, the AC50 under setting [1] is 18.4 µM [falling, single point]. With `CC1CCCCC1NC(=O)C1CCC(CNS(=O)(=O)c2ccccc2)CC1` (stereo not given), the cell number change is 34.7%. Also, under setting [2], the AC50 was 29.1 µM [rising, single point].

Regarding `CCC(CCC(=O)Nc1cccc([N+](=O)[O-])c1)C(=O)O` (stereo not given), the cell number change was 18.6%. `CC1=C(C)CC(C(=O)Nc2nc(C)cs2)C(C(=O)O)C1` (stereo not given): the cell number change worked out at 4.23%. For the same compound, under setting [1], the AC50 was 29.1 µM [rising, single point]. As to `O=C(Nc1ccc2c(c1)OCCO2)c1cccc(Br)c1`, the cell number change was -5.82%. Further, the AC50 under setting [1] was 7.31 µM [rising, single point]. As for `COc1ccc(-n2ncc3c(NCc4ccc5c(c4)OCO5)ncnc32)cc1`, the AC50 under setting [1] was 5.17 µM [rising, single point]. Turning to `CCc1c(C)sc(NC(=O)c2ccccc2[N+](=O)[O-])c1C(N)=O`, the cell number change is -3.41%. For the same compound, the AC50 under setting [1] was 32.6 µM [rising, single point]. For the compound `CCc1ccccc1NC(=O)CNC(=O)c1n[nH]c(=O)c2ccccc12`, the cell number change is -7.94%. For the compound `C=CCn1c(SCC(=O)NCCCC)nc2scc(-c3ccco3)c2c1=O`, the cell number change was -46%. For the same compound, the AC50 under setting [2] is 29.1 µM [falling, single point]. Moreover, under setting [1], the AC50 was 29.1 µM [falling, single point]. On to `CN(C)c1ccc(Nc2nc(-c3cccnc3)cs2)cc1`, for which the cell number change was determined as 49.8%. Besides, the AC50 under setting [2] was 14.6 µM [rising, partial curve]. With `CN(C)S(=O)(=O)c1ccc(Cl)c(C(=O)Nc2nc3ccccc3[nH]2)c1`, under setting [2], the AC50 was 6.51 µM [rising, single point]. Regarding `Cc1ccc(/C=N/NC(=O)CN2CCN(Cc3ccccc3Cl)CC2)o1`, the cell number change came out at 23.1%. The AC50 under setting [1] is 1.64 µM [rising, full curve]. Take `O=C(Cc1ccccn1)c1ccccc1`: the cell number change worked out at 14.1%. Under setting [1], the AC50 is 4.61 µM [rising, full curve]. Regarding `CCCOc1ccccc1C(=O)NC(CO)C(=O)O` (stereo not given), the cell number change was -14.9%. In addition, under setting [1], the AC50 is 0.259 µM [falling, full curve, poor fit]. Regarding `Cc1nn(-c2ccccc2)c(C)c1C(=O)OCC(=O)Nc1ccccc1F`, the cell number change amounted to 4.65%. Also, under setting [2], the AC50 was 3.66 µM [rising, partial curve]. Also, under setting [1], the AC50 is 3.26 µM [rising, partial curve].

Consider `COCCCNC(=O)c1ccccc1N(Cc1ccccc1)S(=O)(=O)c1ccc(OC)cc1`, for which the cell number change was -5.41%. With `O/C(=C\c1ccc2ccccc2n1)c1ccncc1`, the cell number change was -32.7%. In addition, the AC50 under setting [2] is 10.3 µM [falling, partial curve]. Further, the AC50 under setting [1] was 3.26 µM [rising, partial curve, poor fit].

Take `COc1cc(/C=C2/NC(=O)N(CC(=O)Nc3cccc(C)c3)C2=O)ccc1OCC(N)=O`: under setting [1], the AC50 was 18.4 µM [falling, single point].

Take `Cc1cc(C)cc(NC(=O)NCc2nnc(SCc3ccccc3)n2C)c1`: the cell number change was found to be 12.1%. Under setting [1], the AC50 was 18.4 µM [rising, single point].

As to `C=CCNC(=O)C(=O)NN=C1CCN(C)CC1`, the cell number change was -3.29%. The AC50 under setting [1] is 23.1 µM [falling, partial curve]. As to `COc1ccccc1CNS(=O)(=O)c1ccc(Br)s1`, the cell number change was -3.65%. The half-maximal activity concentration (AC50) under setting [1] is 29.1 µM [falling, single point].

For `Cc1ccc(Cl)cc1NC(=O)C1CCCCC1C(=O)O` (stereo not given), the AC50 under setting [1] is 29.1 µM [falling, partial curve, poor fit].

Regarding `CC(C)Cn1cc(C(=O)NCCCN2CCCC2=O)c2c3ccccc3n(C)c2c1=O`, the cell number change is -4.14%. On to `CCOC(=O)c1sc2nc(CSc3ccccc3)nc(N3CCC(C(N)=O)CC3)c2c1C`, for which the cell number change is 11.3%. Also, under setting [1], the AC50 was 6.51 µM [falling, partial curve, poor fit]. As to `CCCCn1c(N)c(N(CC(C)C)C(=O)c2oc3ccc(OC)cc3c2C)c(=O)[nH]c1=O`, the cell number change is 66.7%. Also, the AC50 under setting [2] is 10.3 µM [rising, partial curve]. Turning to `CC(OC(=O)c1ccc(Cl)cc1)C(=O)NCc1ccc2c(c1)OCO2` (stereo not given), the cell number change is -1.68%. Also, the AC50 under setting [1] was 29.1 µM [rising, single point]. As for `Cc1nc2nc(-c3ccco3)[nH]n2c(=O)c1C`, the cell number change amounted to 1.06%. Further, the AC50 under setting [1] was 6.51 µM [falling, single point]. In the case of `CCn1cc(Br)c(C(=O)Nc2ccc(Cl)cc2Cl)n1`, the cell number change was determined as 30.1%. Besides, the AC50 under setting [2] was 20.6 µM [rising, single point]. Further, under setting [1], the AC50 is 29.1 µM [rising, single point]. In the case of `COc1ccc(NC(=O)CN2CCN(S(=O)(=O)c3cccs3)CC2)cc1Cl`, the cell number change is -4.4%. In addition, the AC50 under setting [1] was 2.31 µM [rising, partial curve]. In the case of `COc1ccc(C2CC(C(F)(F)F)n3nc(C(=O)Nc4ccc5c(c4)OCO5)cc3N2)cc1` (stereo not given), the cell number change came out at 7.58%. The AC50 under setting [1] is 0.461 µM [falling, single point].

Turning to `CC(SCc1ccccc1)C(=O)Nc1ccc(F)cc1` (stereo not given), the cell number change is 18.5%. For the same compound, the half-maximal activity concentration (AC50) under setting [1] was 1.84 µM [rising, partial curve]. In the case of `CCc1ccc(C(=O)NNC(=O)c2ccc(=O)n(C)n2)cc1`, the cell number change was determined as 2.7%. In addition, the AC50 under setting [1] was 3.26 µM [falling, full curve].

Source of the values: PubChem BioAssay AID2685 (National Center for Advancing Translational Sciences (NCATS), 2010).
